# Reference: US20060193925A1, “Side effect-relieving agents and/or hypoglycemic effect enhancers for thiazolidine compounds” (KANEBO, LIMITED, priority 2001, published 2006)
# Structures can show the parent of a compound that is named as a salt. For at least one compound, name, drawing or mass did not settle the structure.
# Columns and labels:
# Type in all cases: in vivo
# [1] = Test Example 1: body weight gain inhibiting effect; settings: KKA^y mice; both 1 week and 5 weeks after the administration; Student's t-test
# Description: (§1) Divided into groups of 8 mice, 7-week old KKA^y mice which were genetically obese diabetic animals were used. Group (a) was fed only on a powder diet (CE-2, produced by Clea Japan, Inc.) for 5 weeks, and Group (b), Group (c) and Group (d) were given pioglitazone, the extract powder of Preparation Example 1, and pioglitazone and the extract powder of Preparation Example 1, respectively, for 5 weeks by preparing a powder diet so that the daily dose of each therein was of the values shown in Table 1. During the period of the test, body weights were measured, and the formulation of the diet were adjusted in accordance with an increase or decrease in body weight to keep the doses per day in Group (b) and Group (d) constant.
# The results were evaluated by comparing the body weight gain observed in each of Groups (a), (b), (c) and (d) (Student's t-test).
# KKA^y mice [2] = experiment: Test Example 2: hypoglycemic effect (blood glucose level in serum)
# Description: as §1
# Tests were carried out in the same manner as in Test Example 1. The blood was collected 1 week and 5 weeks after commencement of the administration, and the serum was separated to measure the blood glucose levels.
# [3] = Test Example 3: body weight gain inhibiting effect; settings: KKA^y mice; both 1 week and 4 weeks after the administration
# Description: (§2) Divided into groups of 7 mice, 7-week old KKA^y mice which were genetically obese diabetic animals were used, and the tests were carried out in the same manner as in Test Example 1, except Group (c) and (d) were given the extract powder of Preparation Example 2, and pioglitazone and the extract powder of Preparation Example 2, respectively, for 4 weeks by preparing the powder diet so that the daily dose each therein was of the values shown in Table 4.
# The results were evaluated in the same manner as in Test Example 1.
# KKA^y mice [4] = experiment: Test Example 4: hypoglycemic effect (blood glucose level in serum)
# Description: as §2
# The test was carried out in the same manner as in Test Example 3. The blood was collected 1 week and 4 weeks after commencement of the administration, and the serum was separated to measure the blood glucose levels.
# The results were evaluated in the same manner as in Test Example 2.
# [5] = 1 week after the administration
structure (smiles),measurement,setting,value
"CCc1ccc(CCOc2ccc(CC3SC(=O)NC3=O)cc2)nc1 (stereo not drawn) [Pioglitazone, pioglitazone hydrochloride]",Body weight gain compared with the control group (in words),[1],significantly higher
same,Blood glucose level compared with the control group (in words),KKA^y mice [2]; [5],significantly lower
same,Blood glucose level compared with the control group (in words),KKA^y mice [2]; 5 weeks after the administration,no significant difference
same,Body weight gain compared with the control group (in words),[3],significantly higher
same,Blood glucose level compared with the control group (in words),KKA^y mice [4]; [5],significantly lower
same,Blood glucose level compared with the control group (in words),KKA^y mice [4]; 4 weeks after the administration,no significant difference
